For 12 compounds, T/C and survivor count results are on record in PubChem BioAssay AID248 (DTP/NCI, 2004).

The list shows only some results of the screen, not a fair sample: its compounds were picked by chemical class. Other doses and runs of a compound may be missing. T/C: endpoint of the treated group in % of that of the vehicle group. Some entries give survivors of the animals treated and no T/C: the source holds a T/C of zero for them, seemingly a mark for toxic or unscored doses. Counts of survivors are from the toxicity check (mostly the fifth day) where no day follows; animals may have died later. Schedules are NCI's codes, taken here to give the interval after Q, in days (D) or hours (H), and the number of doses after X. For survival time, the PubChem record calls one and a half times the control and up active, and a quarter to a half above the control has no call in these data; cut-offs in other NCI protocols can differ. Some entries hold several experiments; their values stand side by side, smallest first. Some schedule codes hold Z or #, which are not explained here. Some T/C values carry the count of animals alive at the toxicity check (mostly the fifth day); without a count or a note in brackets, all were alive then. Some entries show no survivor count and are marked so; the dose need not have been tolerated.

This assay concerns L1210 leukemia ip in BDF1 mice, survival T/C. The assay can be described thus: NCI In Vivo Anticancer Drug Screen. Data for tumor model L1210 Leukemia (intraperitoneal) in B6D2F1 (BDF1) mice. The settings on record: higher T/C = longer survival.
The mark [1] stands for this setting: T/C endpoint: mean survival time, dose: 100.0 mg/kg/injection, schedule: Q04DX002 (ip), vehicle: Klucel (hydroxypropylcellulose) (HPC).
[2] abbreviates: T/C endpoint: mean survival time, dose: 200.0 mg/kg/injection, schedule: Q04DX002 (ip), vehicle: Klucel (hydroxypropylcellulose) (HPC).
Where [3] appears, read: T/C endpoint: mean survival time, dose: 100.0 mg/kg/injection, schedule: Q01DX009 (ip), vehicle: saline.
[4] abbreviates: T/C endpoint: mean survival time, dose: 200.0 mg/kg/injection, schedule: Q01DX009 (ip), vehicle: saline.

Consider `CCN(CCCl)CC1OC(O)C(O)C1O` (configuration not stated), for which the T/C is 96 % of control (T/C endpoint: mean survival time, dose: 3.0 mg/kg/injection, schedule: Q01DX Z (ip), vehicle: methylcellulose (MC)); 124 % of control (T/C endpoint: mean survival time, dose: 3.6 mg/kg/injection, schedule: Q01DX Z (ip), vehicle: methylcellulose (MC)); 106 and 182 % of control (T/C endpoint: mean survival time, dose: 5.3 mg/kg/injection, schedule: Q01DX Z (ip), vehicle: methylcellulose (MC)); 98, 151, 165 % of control (T/C endpoint: mean survival time, dose: 8.0 mg/kg/injection, schedule: Q01DX Z (ip), vehicle: methylcellulose (MC)); 113, 158, 198 % of control [5 of 6 alive] (T/C endpoint: mean survival time, dose: 12.0 mg/kg/injection, schedule: Q01DX Z (ip), vehicle: methylcellulose (MC)); 180 % of control (T/C endpoint: mean survival time, dose: 18.0 mg/kg/injection, schedule: Q01DX Z (ip), vehicle: methylcellulose (MC)). Also, for the setting “T/C endpoint: mean survival time, dose: 27.0 mg/kg/injection, schedule: Q01DX Z (ip), vehicle: methylcellulose (MC)”, the T/C was 133 % of control.
On to `CN=C(N=[N+]=[N-])NC#N`, for which the T/C is 93 % of control (T/C endpoint: mean survival time, dose: 50.0 mg/kg/injection, schedule: Q04DX002 (ip), vehicle: Klucel (hydroxypropylcellulose) (HPC)); 101 % of control under setting [1]; 93 % of control under setting [2].
`O=C(O)c1cccc(N(CCCl)CCCl)c1`: the T/C (T/C endpoint: median survival time, dose: 100.0 mg/kg/injection, schedule: Q01DX009 (ip), vehicle: Klucel (hydroxypropylcellulose) (HPC)) was 129 % of control. Besides, the survivor count was 1 of 6 (T/C endpoint: median survival time, dose: 200.0 mg/kg/injection, schedule: Q01DX009 (ip), vehicle: Klucel (hydroxypropylcellulose) (HPC)) and 0 of 6 (T/C endpoint: median survival time, dose: 400.0 mg/kg/injection, schedule: Q01DX009 (ip), vehicle: Klucel (hydroxypropylcellulose) (HPC)).
On to `Cc1ccc(C(C)(C)O)c(CN(C)C)c1C`, for which the T/C was 97 % of control (T/C endpoint: mean survival time, dose: 50.0 mg/kg/injection, schedule: Q01DX001 (ip), vehicle: saline); 101 % of control (T/C endpoint: mean survival time, dose: 100.0 mg/kg/injection, schedule: Q01DX001 (ip), vehicle: saline); 93 % of control (T/C endpoint: mean survival time, dose: 200.0 mg/kg/injection, schedule: Q01DX001 (ip), vehicle: saline); 101 % of control [4 of 6 alive] (T/C endpoint: mean survival time, dose: 400.0 mg/kg/injection, schedule: Q01DX001 (ip), vehicle: saline).
As to `Cc1ccc(CNCCCl)cc1`, the T/C is, setting by setting: (T/C endpoint: mean survival time, dose: 100.0 mg/kg/injection, schedule: Q01DX009 (ip), vehicle: Klucel (hydroxypropylcellulose) (HPC)) 104 % of control; (T/C endpoint: mean survival time, dose: 100.0 mg/kg/injection, schedule: Q04DX003 (ip), vehicle: Klucel (hydroxypropylcellulose) (HPC)) 115 % of control; (T/C endpoint: mean survival time, dose: 200.0 mg/kg/injection, schedule: Q01DX009 (ip), vehicle: Klucel (hydroxypropylcellulose) (HPC)) 93 % of control; (T/C endpoint: mean survival time, dose: 200.0 mg/kg/injection, schedule: Q04DX003 (ip), vehicle: Klucel (hydroxypropylcellulose) (HPC)) 101 % of control; (T/C endpoint: mean survival time, dose: 400.0 mg/kg/injection, schedule: Q04DX003 (ip), vehicle: Klucel (hydroxypropylcellulose) (HPC)) 92 % of control. Further, the survivor count (T/C endpoint: mean survival time, dose: 400.0 mg/kg/injection, schedule: Q01DX009 (ip), vehicle: Klucel (hydroxypropylcellulose) (HPC)) is reported as 3 of 6.
In the case of `Cn1/c(=N/Nc2c([N+](=O)[O-])cc([N+](=O)[O-])cc2[N+](=O)[O-])sc2ccccc21`, the T/C under setting [3] is 96 % of control [survivor count not shown]; the T/C under setting [4] was 98 % of control [survivor count not shown]; the T/C (T/C endpoint: mean survival time, dose: 400.0 mg/kg/injection, schedule: Q01DX009 (ip), vehicle: saline) was 98 % of control [survivor count not shown].
Regarding `CN(C)C(=O)Oc1cccnc1`, the T/C is 100 % of control (T/C endpoint: mean survival time, dose: 12.5 mg/kg/injection, schedule: Q01DX009 (ip), vehicle: saline); 96 % of control (T/C endpoint: mean survival time, dose: 25.0 mg/kg/injection, schedule: Q01DX009 (ip), vehicle: saline); 106 % of control (T/C endpoint: mean survival time, dose: 25.0 mg/kg/injection, schedule: Q04DX003 (ip), vehicle: saline); 102 and 107 % of control (T/C endpoint: mean survival time, dose: 50.0 mg/kg/injection, schedule: Q01DX009 (ip), vehicle: saline); 109 % of control (T/C endpoint: mean survival time, dose: 50.0 mg/kg/injection, schedule: Q04DX003 (ip), vehicle: saline); 96 [4 of 6 alive] and 105 % of control (T/C endpoint: mean survival time, dose: 100.0 mg/kg/injection, schedule: Q04DX003 (ip), vehicle: saline). Also, the survivor count is 3 of 6 under setting [3]; 0 of 6 under setting [4]; 0 of 6 (T/C endpoint: mean survival time, dose: 200.0 mg/kg/injection, schedule: Q04DX003 (ip), vehicle: saline); 0 of 6 (T/C endpoint: mean survival time, dose: 400.0 mg/kg/injection, schedule: Q04DX003 (ip), vehicle: saline).
Regarding `CCCCSP(=O)(CC)OCC` (configuration not stated), the T/C was 92 % of control [survivor count not shown] (T/C endpoint: mean survival time, dose: 0.5 mg/kg/injection, schedule: Q01DX001 (ip), vehicle: saline); 97 % of control [survivor count not shown] (T/C endpoint: mean survival time, dose: 1.0 mg/kg/injection, schedule: Q01DX001 (ip), vehicle: saline); 94 % of control [survivor count not shown] (T/C endpoint: mean survival time, dose: 2.0 mg/kg/injection, schedule: Q01DX001 (ip), vehicle: saline); 96 % of control [survivor count not shown] (T/C endpoint: mean survival time, dose: 4.0 mg/kg/injection, schedule: Q01DX001 (ip), vehicle: saline).
For `N#CN/C(N)=N/P(=O)(Oc1ccccc1)Oc1ccccc1`, the T/C is 94 % of control under setting [1]; 94 % of control under setting [2]; 94 % of control (T/C endpoint: mean survival time, dose: 400.0 mg/kg/injection, schedule: Q04DX002 (ip), vehicle: Klucel (hydroxypropylcellulose) (HPC)).
For `CC(C)P1(=S)OCC(C(C)(C)C)CO1` (configuration not stated), the T/C reads like this: (T/C endpoint: mean survival time, dose: 12.5 mg/kg/injection, schedule: Q04DX003 (ip), vehicle: Klucel (hydroxypropylcellulose) (HPC)) 100 % of control [survivor count not shown]; (T/C endpoint: mean survival time, dose: 25.0 mg/kg/injection, schedule: Q04DX003 (ip), vehicle: Klucel (hydroxypropylcellulose) (HPC)) 100 % of control [survivor count not shown]; (T/C endpoint: mean survival time, dose: 50.0 mg/kg/injection, schedule: Q04DX003 (ip), vehicle: Klucel (hydroxypropylcellulose) (HPC)) 98 % of control [survivor count not shown].
Take `O=P(c1ccccc1)(c1ccccc1)N1NN=N/C1=C/c1ccccc1`: the T/C (T/C endpoint: mean survival time, dose: 100.0 mg/kg/injection, schedule: Q01DX001 (ip), vehicle: steroid suspending solution) was 103 % of control; the T/C (T/C endpoint: mean survival time, dose: 200.0 mg/kg/injection, schedule: Q01DX001 (ip), vehicle: steroid suspending solution) was 95 % of control; the T/C (T/C endpoint: mean survival time, dose: 400.0 mg/kg/injection, schedule: Q01DX001 (ip), vehicle: steroid suspending solution) was 98 % of control.
Turning to `O=P(Nc1nncs1)(Oc1ccccc1)Oc1ccccc1`, the T/C (T/C endpoint: mean survival time, dose: 100.0 mg/kg/injection, schedule: Q01DX009 (ip), vehicle: carboxymethylcellulose (CMC)) is 93 % of control; the T/C (T/C endpoint: mean survival time, dose: 200.0 mg/kg/injection, schedule: Q01DX009 (ip), vehicle: carboxymethylcellulose (CMC)) was 105 % of control; the T/C (T/C endpoint: mean survival time, dose: 400.0 mg/kg/injection, schedule: Q01DX009 (ip), vehicle: carboxymethylcellulose (CMC)) was 112 % of control.
